Our source for the cell number change and AC50 values is PubChem BioAssay AID2685 (National Center for Advancing Translational Sciences (NCATS), 2010).

This is one part of the list. The main result of the screen is listed elsewhere. These columns were measured beside it and carry no call. The list favours compounds with an active or inconclusive main result. Potencies come from curve fits of mixed quality, noted in brackets.

This assay is described as follows: qHTS Assay for Lipid Storage Modulators in Drosophila S3 Cells.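 On cell number change: cells counted by Cell Tracker Red CMTPX staining in the red channel.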 As to conditions: BODIPY lipid droplet fluorescence, 18-24 h; for cell number change: measured here: cell count max response, cells fed with added oleic acid. The method in brief:
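Drosophila S3 cells loaded with oleic acid (400 uM, as added) and compounds at several concentrations; lipid droplets imaged by 488-nm laser-scanning cytometry, 500–530 nm intensity and object ratio to cell channel. Percent activity normalized to 20 uM Triacsin C.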

[1] abbreviates: measured here: cell number channel AC50, cells fed with added oleic acid.
Where [2] appears, read: measured here: lipid fluorescence (Fed channel) AC50, cells fed with added oleic acid.

One may read the AC50 as the midpoint of the concentration-response curve, whichever way the signal moves. Take `Cc1ccc(-n2c(Cc3cccs3)nnc2SCC(=O)Nc2ccc(F)c(F)c2)cc1`: the cell number change is -53.3%. For the same compound, under setting [1], the AC50 is 29.1 µM [falling, single point].
As to `Cc1cccc(C)c1OCC(=O)Nc1nnc(C2CCCO2)s1` (stereo unspecified), the cell number change was 32%. For the same compound, the AC50 under setting [1] was 4.61 µM [rising, full curve, poor fit]. Under setting [2], the half-maximal activity concentration (AC50) was 4.11 µM [rising, full curve].
Take `Cc1nnc(SCC(=O)O)o1`: the cell number change came out at 7.71%. In addition, the half-maximal activity concentration (AC50) under setting [2] is 6.51 µM [falling, single point].
In the case of `Clc1ccc(OCc2nc(-c3ccc(Br)o3)no2)cc1`, the cell number change worked out at 56.1%. Besides, under setting [1], the AC50 is 13 µM [rising, partial curve]. Further, under setting [2], the concentration at half-maximal activity (AC50) is 16.4 µM [rising, partial curve].
Consider `COc1ccc(CCNC(=O)C2CCN(S(=O)(=O)c3ccc4nc5c(c(C(=O)O)c4c3)CCCC5)CC2)cc1OC`, for which the cell number change is -9.23%. Also, the concentration at half-maximal activity (AC50) under setting [2] was 29.1 µM [rising, single point].
Consider `O=C(COc1ccccc1)NCC(=O)N/N=C/c1cccs1`, for which the cell number change was -6.13%. Under setting [2], the concentration at half-maximal activity (AC50) was 7.31 µM [falling, single point].
In the case of `Cc1ccc(NC(=O)Cc2noc3ccccc23)c(C)c1`, the cell number change stood at 17.2%. In addition, the AC50 under setting [2] was 0.0259 µM [rising, partial curve, poor fit].
On to `COc1cccc(NC(=O)COC(=O)/C=C/c2c(C)nn(-c3ccccc3)c2C)c1`, for which the cell number change was -14.9%. Besides, the half-maximal activity concentration (AC50) under setting [2] is 8.2 µM [rising, partial curve, poor fit].
`CCOC(=O)C(=O)/C(=C\N(C)C)c1onc(-c2ccccc2Cl)c1C(=O)OC`: the cell number change stood at 14%. In addition, the AC50 under setting [1] was 5.8 µM [falling, partial curve].
Regarding `COc1ccc(OC)c(NC(=O)CSc2nnnn2-c2ccccc2F)c1`, the cell number change is -7.49%. For the same compound, the half-maximal activity concentration (AC50) under setting [2] was 1.46 µM [rising, single point].
For the compound `Cc1ccccc1COc1ccc(/C(O)=C2/C(=O)C(=O)N(CCCn3ccnc3)C2c2ccco2)cc1` (stereo unspecified), the cell number change was found to be 1.54%.
Take `CCn1c(SCC(=O)NCc2ccco2)nc2c(c1=O)SC(C)C2` (stereo unspecified): the half-maximal activity concentration (AC50) under setting [1] was 0.58 µM [rising, single point].
With `Cc1ccc(C)c(NC(=O)C(Sc2nc3ccc(C)cc3[nH]2)c2ccccc2)c1` (stereo unspecified), the AC50 under setting [2] was 6.51 µM [rising, full curve].
As for `COc1ccccc1CN1CC(C(=O)NCCn2nc(C)cc2C)CCC1=O` (stereo unspecified), the cell number change is -2.31%. Besides, the AC50 under setting [2] was 0.00517 µM [rising, full curve, poor fit].
Consider `N#Cc1sc2nc(-c3ccccc3)cc(-c3ccco3)c2c1N`, for which the cell number change stood at 38.9%. Further, the AC50 under setting [1] was 0.0731 µM [rising, full curve]. The concentration at half-maximal activity (AC50) under setting [2] was 0.092 µM [rising, full curve].
In the case of `CC1CCCCN1C(=O)Cn1cc(C=O)c2ccccc21` (stereo unspecified), the cell number change was -0.74%. Further, the half-maximal activity concentration (AC50) under setting [2] was 1.16 µM [falling, full curve, poor fit].
For `CCOC(=O)Cn1c(=O)c2c(nc3n2CCCN3CCc2ccccc2)n(C)c1=O`, the cell number change was -13.4%. The AC50 under setting [1] is 0.259 µM [rising, full curve].
For `CCC(C)NC(=O)CNC(=S)N(Cc1ccccc1F)C1CCCCC1` (stereo unspecified), the cell number change was determined as 37.4%. The AC50 under setting [1] is 0.517 µM [rising, full curve]. The half-maximal activity concentration (AC50) under setting [2] is 3.26 µM [rising, single point].
As to `CC(OC(=O)CN1C(=O)NC2(CCCC2)C1=O)C(=O)c1ccccc1` (stereo unspecified), the cell number change came out at 5%.
Still for that read-out and setting: the figure for `COc1ccccc1-n1c(SCC(=O)Nc2ccccc2C)nc(O)cc1=O` is 9.98%.
For `CCCCCc1cc(=O)oc2c(C(CCN(CC)CC)c3cc(OC)c(OC)c(OC)c3)c(OC)cc(OC)c12` (stereo unspecified), the cell number change came to 5.56%. Moreover, the AC50 under setting [2] is 0.731 µM [rising, full curve].
Regarding `O=C(Nc1cccc(C(F)(F)F)c1)N1CCN(C(=O)Nc2cccc(C(F)(F)F)c2)CC1`, the cell number change was -23.7%. The AC50 under setting [1] was 3.26 µM [falling, full curve, poor fit]. The AC50 under setting [2] was 0.651 µM [falling, full curve, poor fit].
Consider `O=C(NCc1ccccn1)c1ccc(OC2CCN(Cc3ccccc3)CC2)cc1`, for which the cell number change amounted to 24.3%. Further, the half-maximal activity concentration (AC50) under setting [2] is 29.1 µM [rising, single point].
For `O=C(O)/C(=C\c1ccc(Cl)cc1)c1ccc(S(=O)(=O)N2CCCC2)s1`, the cell number change amounted to 14.2%. Under setting [1], the AC50 is 0.00461 µM [rising, full curve, poor fit]. Also, the AC50 under setting [2] was 6.51 µM [rising, single point].
With `Cc1ccc(/C=N/NC(=O)Cn2ccc(C(F)(F)F)n2)o1`, the cell number change was -5.02%. Moreover, the concentration at half-maximal activity (AC50) under setting [1] is 0.731 µM [falling, full curve, poor fit].
Turning to `CCOC(=O)[C@H]1[C@H]2COc3ccc(Cl)cc3[C@@H]2N2C(=O)CN(Cc3ccc(F)cc3)C(=O)[C@@]12C`, the cell number change is 4.85%. In addition, under setting [2], the AC50 was 1.46 µM [falling, single point].
Take `Oc1ccccc1OCC(O)c1ccccc1` (stereo unspecified): the cell number change is -8.57%. In addition, the half-maximal activity concentration (AC50) under setting [2] is 29.1 µM [rising, partial curve, poor fit].
Take `COc1ccc(Cc2nc(-c3cccnc3)no2)cc1OC`: the cell number change is 12.8%.
In the case of `CCOc1cc(C(=O)N2CCOCC2)ccc1OCc1ccccc1`, the cell number change was found to be 5.36%. In addition, under setting [2], the AC50 was 6.51 µM [rising, single point].
As for `Cc1ccc(S(=O)(=O)N2CCOCC2)cc1C(=O)N1C(=O)c2cccc(N)c2C1=O`, the cell number change came out at 11.6%. Moreover, the concentration at half-maximal activity (AC50) under setting [2] was 0.517 µM [falling, full curve, poor fit].
`Cc1ccc(NC(=S)NCc2ccc3c(c2)OCO3)c(C)c1`: the cell number change was 55.8%. Also, the AC50 under setting [1] was 0.326 µM [rising, full curve]. In addition, the concentration at half-maximal activity (AC50) under setting [2] was 29.1 µM [rising, partial curve].
`O=C(NNC(=O)c1cc2ccccc2o1)c1ccc(F)cc1`: the cell number change is -5.38%. In addition, the AC50 under setting [2] was 6.51 µM [falling, single point].
As for `CC1=NN(C(C#N)c2cccc([N+](=O)[O-])c2)C(C)(C)C1` (stereo unspecified), the cell number change was 52.5%. Further, the AC50 under setting [1] was 18.4 µM [rising, single point]. For the same compound, the AC50 under setting [2] is 20.6 µM [rising, single point].
For `CCn1c(CNc2ccc(OC)cc2)nnc1SCC(=O)N1CCCc2ccccc21`, the cell number change was -32.9%. Also, the AC50 under setting [1] was 0.326 µM [falling, full curve].
For the compound `Nc1cc(=O)[nH]c(SCCSc2ccccc2F)n1`, the cell number change was -8.97%.
Turning to `O=C(Cn1ncn2c(cc3ccccc32)c1=O)NCCCc1ccccc1`, the cell number change was -5.31%. Besides, under setting [1], the AC50 is 4.11 µM [falling, single point]. In addition, the half-maximal activity concentration (AC50) under setting [2] is 20.6 µM [rising, single point].
Take `O=C1c2ccccc2C(=O)N1c1ccc(-c2nc3ccccc3o2)cc1`: the cell number change worked out at 17.7%. Moreover, the concentration at half-maximal activity (AC50) under setting [2] was 8.2 µM [rising, partial curve, poor fit].
